In PubChem BioAssay AID624297 (National Center for Advancing Translational Sciences (NCATS), 2012):
Among all 340,000 compounds or so, about 6,200 (1.8%) were called active. Inconclusive results, whose numbers are uncertain, are shown with a selection of clear calls. Calls come from the whole dose curve; as a rule, active = well fitted activation curve with a large enough effect; inconclusive = small, poorly fitted or top-dose-only effect; inactive = no such curve, though single readings can be large or run the other way. A potency beside an inconclusive call is a rough fit, not a confirmed value.

experiment: A quantitative high throughput screen for small molecules that induce DNA re-replication in SW480 colon adenocarcinoma cells.; note: nearly all actives have a fitted effect of over 55% in size; conditions: Hoechst DNA content imaging, 48 h; series mostly up to 46.1 µM
Summary of the method: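 Readout is total intensity of Hoechst-stained nuclei, excited at 405 nm and collected at 500-530 nm. Compound treatment lasted 48 hr at 37 C in 5% CO2 before staining.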
Potency is the fitted concentration of half-maximal effect.

Row | Structure (SMILES) | Potency
1 | CN(C)c1nc(N(C)C)nc(N(C#N)Cc2ccc(Cl)cc2)n1 | inactive
2 | CCc1cn(C2CC(O)C(CO)O2)c(=O)[nH]c1=O (stereo not drawn) | inactive
3 | CC(C)c1ccc(CNC(=O)CCc2ccccc2)cc1 | inactive
4 | CCNc1nc(NCC)nc(Oc2ccc(C(=O)OC)cc2)n1 | inconclusive: 29.1 µM [activator, single point]
5 | CCOc1cc(CN2CCN(CCc3ccccc3)C(CCO)C2)ccc1OC (stereo not drawn) | inconclusive: 6.51 µM [activator, single point]
6 | COC(=O)c1cc(=O)n(-c2ccc(F)cc2)c(=Nc2ccc(F)cc2)s1 | inconclusive: 29.1 µM [activator, single point]
7 | COC(=O)/C=C/c1ccccc1S(=O)(=O)N(Cc1ccccc1)Cc1ccco1 | active: 4.11 µM
8 | CC12CCC(=O)C=C1CCC1C2CCC2(C)C(c3csc(N)n3)CCC12 (stereo not drawn) | inconclusive: 32.6 µM [activator, partial curve, poor fit]
9 | O=C(c1cccc(Cl)c1)N1CCC(=O)N(C(COCc2ccccc2)Cc2ccccc2)CC1 (stereo not drawn) | inconclusive: 16.4 µM [activator, single point]
10 | CC(C)(C)c1ccc(C(=O)O/N=C(\N)c2ccccn2)cc1 | inconclusive: 29.1 µM [activator, single point]
11 | O=C(Nc1cccc(S(=O)(=O)N2CCOCC2)c1)C1=NN(c2ccccc2)C(=O)CC1 | inconclusive: 6.51 µM [activator, single point]
12 | COc1cccc(CNC(=O)CCC2CCCN(C(=O)c3ccoc3)C2)c1 (stereo not drawn) | inactive
13 | Cc1ccccc1OCC1Cc2c(nc(N)c(C#N)c2N)O1 (stereo not drawn) | inactive
14 | COc1cc(CN2CCN(C(O)(c3ccccc3)c3ccccc3)CC2)cc(OC)c1OC | inconclusive: 25.9 µM [activator, single point]
15 | O=C1c2ccc(Cl)cc2S(=O)(=O)c2cccc(C(=O)N3CCC(Cc4ccccc4)CC3)c21 | inconclusive: 29.1 µM [activator, single point]
16 | Cc1ccc2nc(-c3cccnc3SCC(=O)N3c4ccccc4CC3C)[nH]c2c1 (stereo not drawn) | inconclusive: 6.51 µM [activator, single point]
17 | COC(=O)c1cc(Br)ccc1NC(=O)Nc1ccc(C)cc1 | inactive
18 | CCCCc1nnc(SCC(=O)Nc2nccs2)n1CC | inactive
19 | COc1ccc(C(=O)O/N=C(\N)Cc2cccs2)cc1OC | inconclusive: 18.4 µM [activator, single point]
20 | O=S1(=O)C=C(SCc2ccc(Cl)c(Cl)c2)Nc2ccccc21 | inconclusive: 29.1 µM [activator, single point]
21 | O=C(N/N=C/c1c(-c2ccccc2)[nH]c2ccccc12)c1cccnc1 | active: 23.1 µM
22 | CC(=O)Oc1ccccc1-c1nc(/C=C/c2ccccc2)no1 | inactive
23 | Cc1ccc(S(=O)(=O)N2CCOCC2)cc1C(=O)Nc1ccncc1 | inactive
24 | NC(=S)NN=C(c1ccc(F)cc1)C1CC1 | inactive

Row | Structure (SMILES) | Potency
25 | O=C(NNC(=O)C12CC3CC(CC(C3)C1)C2)c1ccccc1O | inconclusive: 29.1 µM [activator, single point]
26 | C=CC1=C(C(=O)O)N2C(=O)[C@@H](NC(=O)/C(=N\OCC(=O)O)c3csc(N)n3)[C@H]2SC1 | inconclusive: 0.0046 µM [activator, full curve, poor fit]
27 | COc1cc(C2C3=C(CC(C)(C)CC3=O)OC3=C2C(=O)CC(C)(C)C3)cc([N+](=O)[O-])c1O | inactive
28 | C=CC1=C(C(=O)O)N2C(=O)[C@@H](NC(=O)C(N=O)c3csc(N)n3)[C@H]2SC1 (stereo partly drawn) | inactive
29 | O=[N+]([O-])c1cccc(C(=S)N2CCN(c3ccc(F)cc3)CC2)c1 | inconclusive: 6.51 µM [activator, partial curve, poor fit]
30 | O=C(/C=C/c1ccc(F)cc1)NC(=S)Nc1ccccc1O | inactive
31 | CCN1CCN(C(=O)c2ccc3c(=O)n(Cc4ccccc4OC)c(=S)[nH]c3c2)CC1 | inactive
32 | O=C(NCC1COc2ccccc2O1)c1cc(S(=O)(=O)N2CCOCC2)c(Cl)cc1Cl (stereo not drawn) | inconclusive: 3.66 µM [activator, partial curve, poor fit]
33 | Cc1oc(-c2ccccc2Cl)nc1CS(=O)CC(=O)NC1CC1 (stereo not drawn) | inactive
34 | CCOc1cc(C2C3=C(CCCC3=O)N(CC(=O)O)C3=C2C(=O)CCC3)ccc1OC | inactive
35 | COc1ccc(N(CC(C)C)S(=O)(=O)c2nnc(NC(=O)CC(C)C)s2)cc1 | inactive
36 | CNC(=O)c1cccn1-c1ccsc1C(=O)OC | inconclusive: 29.1 µM [activator, single point]
37 | OC(COCC1COc2ccccc2O1)CN1CCN(c2ccccc2)CC1 (stereo not drawn) | inactive
38 | CCCCn1c(N)c(N(CCOC)C(=O)c2cc(Cl)nc3ccccc23)c(=O)[nH]c1=O | inactive
39 | COc1ccc(CNC(=O)C[C@H]2C[C@H](C(=O)N3CCCCC3)[C@@]3(C)c4[nH]c5cc(CCC(=O)N(C)C)ccc5c4CCN3C2=O)cc1OC | inconclusive: 29.1 µM [activator, single point]
40 | c1ccc(CSc2ccc(-c3ccc4c(c3)OCO4)nn2)cc1 | inactive
41 | CC(C)C(NC(=O)Nc1ccccc1)C(=O)Nc1cccc(S(=O)(=O)N(C)C)c1 (stereo not drawn) | inconclusive: 0.651 µM [activator, full curve, poor fit]
42 | COc1ccc(CCC(=O)N2CCN(S(=O)(=O)c3cccs3)CC2)cc1 | inconclusive: 29.1 µM [activator, partial curve, poor fit]
43 | Cc1ccccc1/C=C/c1cccc[n+]1C | inconclusive: 16.4 µM [activator, partial curve, poor fit]
44 | COc1ccc(C(=O)NC(C)c2cccnc2)cc1S(=O)(=O)N(C)Cc1ccccc1 (stereo not drawn) | inactive
45 | Oc1ccc(CN2CCCCC2)c2cccnc12 | inactive
46 | O=c1[nH]nc(SCCS(=O)(=O)c2ccc(F)cc2)n1-c1ccc2c(c1)OCCO2 | inconclusive: 16.4 µM [activator, single point]
47 | O=C(O)c1ccc(N/N=C/c2ccc(-c3ccccc3)cc2)cc1 | active: 20.6 µM
48 | O=C1C(=O)c2ncccc2-c2cccnc21 | inconclusive: 2.37 µM [activator, full curve, poor fit]

Pulled one by one from above:
Row | Structure (SMILES) | Potency
27 | COc1cc(C2C3=C(CC(C)(C)CC3=O)OC3=C2C(=O)CC(C)(C)C3)cc([N+](=O)[O-])c1O | inactive
26 | C=CC1=C(C(=O)O)N2C(=O)[C@@H](NC(=O)/C(=N\OCC(=O)O)c3csc(N)n3)[C@H]2SC1 | inconclusive: 0.0046 µM [activator, full curve, poor fit]
32 | O=C(NCC1COc2ccccc2O1)c1cc(S(=O)(=O)N2CCOCC2)c(Cl)cc1Cl (stereo not drawn) | inconclusive: 3.66 µM [activator, partial curve, poor fit]
